Binding data for one substance are collected here from publication PMC10111864.

Sequences of proteins named here, by UniProt entry; tags and fusion partners are left off. A change or cut given only in a name is not applied to a line headed by its entry.
UniProt P13020: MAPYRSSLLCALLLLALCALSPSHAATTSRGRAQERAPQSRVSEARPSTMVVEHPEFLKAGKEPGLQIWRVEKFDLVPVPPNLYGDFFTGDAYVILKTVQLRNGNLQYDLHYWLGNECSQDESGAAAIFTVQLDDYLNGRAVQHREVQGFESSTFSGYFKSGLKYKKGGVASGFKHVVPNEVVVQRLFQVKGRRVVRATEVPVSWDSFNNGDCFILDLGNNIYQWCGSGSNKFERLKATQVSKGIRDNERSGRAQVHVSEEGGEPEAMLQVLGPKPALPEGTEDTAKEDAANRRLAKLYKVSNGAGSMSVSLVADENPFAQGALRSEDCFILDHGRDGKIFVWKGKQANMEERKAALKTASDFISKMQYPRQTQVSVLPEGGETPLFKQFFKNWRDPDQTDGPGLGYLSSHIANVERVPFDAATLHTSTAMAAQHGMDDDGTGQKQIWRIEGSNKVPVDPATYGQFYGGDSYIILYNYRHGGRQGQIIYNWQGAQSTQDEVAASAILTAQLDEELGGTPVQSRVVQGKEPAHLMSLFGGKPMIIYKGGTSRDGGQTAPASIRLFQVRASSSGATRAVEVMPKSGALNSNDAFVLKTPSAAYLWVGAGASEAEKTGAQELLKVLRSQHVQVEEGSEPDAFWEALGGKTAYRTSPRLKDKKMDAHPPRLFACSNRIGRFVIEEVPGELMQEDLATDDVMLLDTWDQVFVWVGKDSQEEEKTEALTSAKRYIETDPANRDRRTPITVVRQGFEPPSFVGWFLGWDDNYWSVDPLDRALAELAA

No constants are given. Whether binding was seen depends on the method and setting. In cells and extracts the contact can be indirect. A result given as binding can be weak or reduced; the word gives no strength. Where a sequence is shown, tags or fusion partners need not be part of it.

In assay [1] the target is T1, KIF1C (endogenous, untagged) (mouse (endogenous in YUMM1.7)) (UniProt O35071).
T1 sequence: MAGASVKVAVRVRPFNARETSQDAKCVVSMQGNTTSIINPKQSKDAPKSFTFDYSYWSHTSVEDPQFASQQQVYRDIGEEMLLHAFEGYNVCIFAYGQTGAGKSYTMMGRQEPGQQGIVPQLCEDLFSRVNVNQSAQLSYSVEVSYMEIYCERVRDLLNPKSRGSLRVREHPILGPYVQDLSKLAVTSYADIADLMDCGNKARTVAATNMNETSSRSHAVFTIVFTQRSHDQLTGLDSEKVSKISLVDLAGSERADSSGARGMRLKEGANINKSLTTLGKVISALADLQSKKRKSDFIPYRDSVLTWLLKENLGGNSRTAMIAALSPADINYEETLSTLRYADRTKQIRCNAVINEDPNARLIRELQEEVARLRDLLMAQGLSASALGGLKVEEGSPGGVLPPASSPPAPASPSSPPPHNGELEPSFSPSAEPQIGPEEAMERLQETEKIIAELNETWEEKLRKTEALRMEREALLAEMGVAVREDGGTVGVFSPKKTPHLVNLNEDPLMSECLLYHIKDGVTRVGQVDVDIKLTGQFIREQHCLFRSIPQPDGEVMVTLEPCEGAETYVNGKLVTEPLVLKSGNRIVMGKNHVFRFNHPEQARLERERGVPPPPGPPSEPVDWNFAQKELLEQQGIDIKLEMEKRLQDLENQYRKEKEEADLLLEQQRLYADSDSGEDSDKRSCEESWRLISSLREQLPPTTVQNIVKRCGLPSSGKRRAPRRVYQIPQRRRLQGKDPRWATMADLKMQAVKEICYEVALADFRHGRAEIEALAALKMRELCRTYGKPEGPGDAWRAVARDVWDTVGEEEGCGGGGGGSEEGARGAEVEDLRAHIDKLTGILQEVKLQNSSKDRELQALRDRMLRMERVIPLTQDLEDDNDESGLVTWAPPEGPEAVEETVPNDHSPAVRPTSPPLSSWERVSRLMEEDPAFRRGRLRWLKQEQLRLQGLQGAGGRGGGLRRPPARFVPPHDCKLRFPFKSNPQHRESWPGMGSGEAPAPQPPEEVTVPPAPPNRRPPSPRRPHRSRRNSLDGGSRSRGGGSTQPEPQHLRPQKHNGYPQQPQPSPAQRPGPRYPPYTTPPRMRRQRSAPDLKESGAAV
Description: co-IP; α-KIF1C antibody, protein G Dynabeads, lysate of untagged Kif1c+/+ YUMM1.7 cells only (Kif1c mRNA properly localized), Western blot.

The target in assay [2] is T2, KIF1C:mCherry (endogenous KIF1C tagged at the C terminus with mCherry) (mouse (endogenous in YUMM1.7)) (UniProt O35071).
T2 sequence: T1 sequence
Description: co-IP; α-mCherry antibody, protein G Dynabeads, lysate of KIF1C:mCherry +/+ YUMM1.7 cells only (Kif1c mRNA properly localized), Western blot.

Assay [3] deals with T1, KIF1C (endogenous, untagged) (mouse (endogenous in YUMM1.7)). The assay is described as follows: co-IP; α-KIF1C antibody (2 μg), protein G Dynabeads, lysates of untagged Kif1c+/+ and Kif1c ΔGA1,2 YUMM1.7 cells (3-4 mg total protein), Western blot; washes 50 mM Tris pH 7.4, 150 mM NaCl, 0.02% NP-40.
The target in assay [4] is T2, KIF1C:mCherry (endogenous KIF1C tagged at the C terminus with mCherry) (mouse (endogenous in YUMM1.7)). The assay is described as follows: co-IP; α-mCherry antibody (10 μg, Invitrogen 16D7), protein G Dynabeads, lysates of KIF1C:mCherry-tagged YUMM1.7 cell lines (+/+ and ΔGA1,2), Western blot; washes 50 mM Tris pH 7.4, 150 mM NaCl, 0.02% NP-40.

With GSN (from UniProt P13020), the binding result in assay [1] was “binds weakly”; in assay [2] it was “binds weakly”; in assay [3], “binds”; in assay [4], “binds”.
